Assay results taken from the supplement of paper PMC10849652.
Some of the results follow.

The chains behind the UniProt entries cited, without tags or fusion partners. Where a name states a change or a piece, a line headed by the entry shows the natural chain unless it says otherwise.
UniProt P20333, whole entry, looked up: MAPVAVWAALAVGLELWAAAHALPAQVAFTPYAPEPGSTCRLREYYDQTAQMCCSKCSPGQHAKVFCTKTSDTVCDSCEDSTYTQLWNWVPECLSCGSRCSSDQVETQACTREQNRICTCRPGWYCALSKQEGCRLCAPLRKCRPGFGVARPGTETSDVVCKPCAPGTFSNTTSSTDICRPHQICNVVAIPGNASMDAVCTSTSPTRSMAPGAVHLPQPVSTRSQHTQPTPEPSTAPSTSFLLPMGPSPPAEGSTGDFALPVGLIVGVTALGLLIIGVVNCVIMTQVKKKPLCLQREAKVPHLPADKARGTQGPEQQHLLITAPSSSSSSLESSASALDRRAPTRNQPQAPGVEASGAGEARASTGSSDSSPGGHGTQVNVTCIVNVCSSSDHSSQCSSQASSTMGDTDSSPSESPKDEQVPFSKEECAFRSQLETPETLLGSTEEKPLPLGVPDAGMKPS
UniProt Q9Y5L0: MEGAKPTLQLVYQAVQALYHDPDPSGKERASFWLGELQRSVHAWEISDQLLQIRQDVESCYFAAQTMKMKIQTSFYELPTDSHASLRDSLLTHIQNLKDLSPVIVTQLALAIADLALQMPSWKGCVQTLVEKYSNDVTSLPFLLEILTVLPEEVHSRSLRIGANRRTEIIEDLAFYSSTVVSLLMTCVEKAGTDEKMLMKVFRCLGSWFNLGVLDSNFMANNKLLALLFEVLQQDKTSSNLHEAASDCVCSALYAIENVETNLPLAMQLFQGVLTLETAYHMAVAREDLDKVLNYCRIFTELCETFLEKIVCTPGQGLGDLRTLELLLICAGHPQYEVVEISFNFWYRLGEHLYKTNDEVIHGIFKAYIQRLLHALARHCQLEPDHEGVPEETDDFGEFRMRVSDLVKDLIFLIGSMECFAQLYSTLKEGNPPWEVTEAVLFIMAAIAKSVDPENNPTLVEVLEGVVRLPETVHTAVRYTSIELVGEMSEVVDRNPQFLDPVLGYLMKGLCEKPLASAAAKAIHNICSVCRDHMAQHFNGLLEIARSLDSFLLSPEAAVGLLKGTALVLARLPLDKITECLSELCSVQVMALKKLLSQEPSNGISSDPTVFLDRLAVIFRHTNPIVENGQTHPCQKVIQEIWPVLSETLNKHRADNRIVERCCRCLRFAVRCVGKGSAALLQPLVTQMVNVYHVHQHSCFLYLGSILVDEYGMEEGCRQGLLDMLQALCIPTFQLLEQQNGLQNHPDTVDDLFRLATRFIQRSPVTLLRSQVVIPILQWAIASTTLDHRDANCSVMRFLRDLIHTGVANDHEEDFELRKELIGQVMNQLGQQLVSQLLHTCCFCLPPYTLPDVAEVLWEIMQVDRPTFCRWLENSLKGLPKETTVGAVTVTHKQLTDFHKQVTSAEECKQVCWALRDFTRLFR
UniProt Q9H0R3: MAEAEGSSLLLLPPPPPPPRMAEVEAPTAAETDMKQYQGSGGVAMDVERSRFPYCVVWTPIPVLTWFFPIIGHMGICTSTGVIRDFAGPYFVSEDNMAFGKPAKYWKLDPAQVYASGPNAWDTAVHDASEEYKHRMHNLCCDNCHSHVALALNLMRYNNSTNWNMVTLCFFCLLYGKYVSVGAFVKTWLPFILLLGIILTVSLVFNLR
UniProt Q96SK2: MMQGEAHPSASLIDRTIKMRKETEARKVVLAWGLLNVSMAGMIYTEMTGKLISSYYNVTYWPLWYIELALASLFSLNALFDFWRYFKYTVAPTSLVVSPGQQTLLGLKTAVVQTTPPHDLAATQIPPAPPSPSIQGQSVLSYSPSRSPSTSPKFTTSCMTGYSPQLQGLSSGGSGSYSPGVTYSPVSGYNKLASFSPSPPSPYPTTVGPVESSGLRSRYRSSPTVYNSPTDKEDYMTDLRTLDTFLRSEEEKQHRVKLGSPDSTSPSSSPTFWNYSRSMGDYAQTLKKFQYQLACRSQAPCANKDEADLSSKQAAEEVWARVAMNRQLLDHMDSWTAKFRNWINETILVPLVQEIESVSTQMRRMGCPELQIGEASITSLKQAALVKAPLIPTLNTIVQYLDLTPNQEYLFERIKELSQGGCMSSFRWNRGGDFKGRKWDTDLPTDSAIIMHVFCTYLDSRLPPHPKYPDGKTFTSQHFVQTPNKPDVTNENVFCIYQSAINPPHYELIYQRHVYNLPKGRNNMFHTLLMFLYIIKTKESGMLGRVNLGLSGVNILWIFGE
UniProt Q9BUB7: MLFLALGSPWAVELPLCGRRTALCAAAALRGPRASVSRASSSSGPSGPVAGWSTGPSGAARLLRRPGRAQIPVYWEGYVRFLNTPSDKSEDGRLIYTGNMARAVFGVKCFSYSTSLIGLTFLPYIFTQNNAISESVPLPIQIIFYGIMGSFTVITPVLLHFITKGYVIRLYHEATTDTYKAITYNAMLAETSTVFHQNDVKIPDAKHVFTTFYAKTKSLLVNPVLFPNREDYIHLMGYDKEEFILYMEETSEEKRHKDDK
UniProt O95985: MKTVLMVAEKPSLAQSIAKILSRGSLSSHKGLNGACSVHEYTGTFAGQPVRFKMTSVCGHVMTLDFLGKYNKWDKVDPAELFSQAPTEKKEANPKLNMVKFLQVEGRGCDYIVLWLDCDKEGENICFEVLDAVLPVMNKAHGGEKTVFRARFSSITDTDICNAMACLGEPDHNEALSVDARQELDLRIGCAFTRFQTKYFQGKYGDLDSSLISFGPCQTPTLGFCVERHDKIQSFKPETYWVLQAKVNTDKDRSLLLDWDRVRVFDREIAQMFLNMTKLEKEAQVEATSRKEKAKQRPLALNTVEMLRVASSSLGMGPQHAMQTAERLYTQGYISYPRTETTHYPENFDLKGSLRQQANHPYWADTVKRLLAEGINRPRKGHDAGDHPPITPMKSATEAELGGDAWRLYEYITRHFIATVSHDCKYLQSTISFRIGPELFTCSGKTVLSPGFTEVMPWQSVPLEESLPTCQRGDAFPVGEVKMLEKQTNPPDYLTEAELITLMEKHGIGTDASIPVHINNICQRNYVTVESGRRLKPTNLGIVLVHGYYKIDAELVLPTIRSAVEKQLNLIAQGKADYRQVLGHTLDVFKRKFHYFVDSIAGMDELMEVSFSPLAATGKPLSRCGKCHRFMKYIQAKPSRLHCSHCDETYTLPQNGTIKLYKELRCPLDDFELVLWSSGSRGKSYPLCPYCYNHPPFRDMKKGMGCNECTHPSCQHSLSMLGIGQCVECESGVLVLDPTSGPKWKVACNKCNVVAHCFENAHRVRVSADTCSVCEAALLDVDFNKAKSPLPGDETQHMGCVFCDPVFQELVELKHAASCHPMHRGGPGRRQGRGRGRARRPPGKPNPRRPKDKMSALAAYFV
UniProt P62328: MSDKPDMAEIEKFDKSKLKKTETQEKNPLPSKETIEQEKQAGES
UniProt Q8IY95: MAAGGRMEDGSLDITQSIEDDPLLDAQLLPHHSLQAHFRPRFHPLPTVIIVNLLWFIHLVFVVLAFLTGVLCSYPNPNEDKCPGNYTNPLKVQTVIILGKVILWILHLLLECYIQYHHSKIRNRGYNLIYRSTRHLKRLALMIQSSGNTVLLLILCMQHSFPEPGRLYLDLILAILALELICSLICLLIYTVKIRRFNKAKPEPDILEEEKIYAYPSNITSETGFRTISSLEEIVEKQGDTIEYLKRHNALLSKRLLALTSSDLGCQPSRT

Tests used:
Assay in all cases: log2 fold change, soluble protein after heating vs DMSO (PISA); higher = thermal stabilisation; K562 lysate, 10 uM; active = over 0.2 and 3.5 SD of the protein, either way, in both replicates (recomputed)
lapatinib = compound: CS(=O)(=O)CCNCc1ccc(-c2ccc3ncnc(Nc4ccc(OCc5cccc(F)c5)c(Cl)c4)c3c2)o1 [lapatinib]
Procedure, shortened: (§1)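 Following dounce homogenisation of K562 pellets in PBS pH 7.4 with 1 mM MgCl2, crude extract at 1 mg/mL protein was incubated for 30 min with 10 μM compound. Aliquots were then heated for 3 min over 48°C-58°C and pooled, NP-40 was added to 0.5% at 4°C, and soluble protein was recovered as the supernatant at 21,000xg for 90 min. Channel-sum-equalised TMTpro 16plex LC-MS/MS quantified this protein. Each value, from duplicates, is a log-two fold change in thermal stability relative to solvent controls.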

pictilisib = compound: CS(=O)(=O)N1CCN(Cc2cc3nc(-c4cccc5[nH]ncc45)nc(N4CCOCC4)c3s2)CC1 [pictilisib]
Procedure, shortened: as §1

crizotinib = compound: C[C@@H](Oc1cc(-c2cnn(C3CCNCC3)c2)cnc1N)c1c(Cl)ccc(F)c1Cl [crizotinib]
Procedure, shortened: as §1

[1] = compound: C[C@H](C1=CC=C(C=C1)C(=O)NC2=C3C=CNC3=NC=C2)N
Procedure, shortened: as §1

duvelisib = compound: C[C@H](Nc1ncnc2nc[nH]c12)c1cc2cccc(Cl)c2c(=O)n1-c1ccccc1 [duvelisib]
Procedure, shortened: as §1

gandotinib = compound: Cc1cc(Nc2cc(CN3CCOCC3)c3nc(C)c(Cc4ccc(Cl)cc4F)n3n2)n[nH]1 [gandotinib]
Procedure, shortened: as §1

tozasertib = compound: Cc1cc(Nc2cc(N3CCN(C)CC3)nc(Sc3ccc(NC(=O)C4CC4)cc3)n2)n[nH]1 [tozasertib]
Procedure, shortened: as §1

doramapimod = compound: Cc1ccc(-n2nc(C(C)(C)C)cc2NC(=O)Nc2ccc(OCCN3CCOCC3)c3ccccc23)cc1 [doramapimod]
Procedure, shortened: as §1

bafetinib = compound: Cc1ccc(NC(=O)c2ccc(CN3CC[C@H](N(C)C)C3)c(C(F)(F)F)c2)cc1Nc1nccc(-c2cncnc2)n1 [bafetinib]
Procedure, shortened: as §1

[2] = compound: Cc1cccc(CC(=O)N2CCc3c2ccc(-c2cn(C)c4ncnc(N)c24)c3F)n1
Procedure, shortened: as §1

nilotinib = compound: Cc1cn(-c2cc(NC(=O)c3ccc(C)c(Nc4nccc(-c5cccnc5)n4)c3)cc(C(F)(F)F)c2)cn1 [nilotinib]
Procedure, shortened: as §1

[3] = compound: Cc1nc(Nc2n[nH]c3c2CN(C(=O)N[C@H](CN(C)C)c2ccccc2)C3(C)C)c2sccc2n1
Procedure, shortened: as §1

dasatinib = compound: Cc1nc(Nc2ncc(C(=O)Nc3c(C)cccc3Cl)s2)cc(N2CCN(CCO)CC2)n1 [dasatinib]
Procedure, shortened: as §1

[4] = compound: Cc1ncc(-c2ccnc(Nc3ccc(S(C)(=O)=O)cc3)n2)n1C(C)C
Procedure, shortened: as §1

[5] = compound: Cn1cc(-c2ccc3c(c2)CCN3C(=O)Cc2cccc(C(F)(F)F)c2)c2c(N)ncnc21
Procedure, shortened: as §1

quisinostat = compound: Cn1cc(CNCC2CCN(c3ncc(C(=O)NO)cn3)CC2)c2ccccc21 [quisinostat]
Procedure, shortened: as §1

tipifarnib = compound: Cn1cncc1[C@@](N)(c1ccc(Cl)cc1)c1ccc2c(c1)c(-c1cccc(Cl)c1)cc(=O)n2C [tipifarnib]
Procedure, shortened: as §1

[6] = compound: NC(=O)Nc1cc(-c2cccc(F)c2)sc1C(=O)N[C@H]1CCCNC1
Procedure, shortened: as §1

[7] = compound: NC(=O)c1cnc(N[C@@H]2CCCC[C@@H]2N)nc1Nc1cccc(-n2nccn2)c1
Procedure, shortened: as §1

[8] = compound: NC1(c2ccc(-c3nc4ccn5c(=O)[nH]nc5c4cc3-c3ccccc3)cc2)CCC1
Procedure, shortened: as §1

Measured: log2 fold change

TNFRSF1B (UniProt P20333)
inactive: lapatinib -0.204 | pictilisib -0.037 | crizotinib 0.007 | [1] -0.144 | duvelisib 0.007 | gandotinib 0.127 | tozasertib -0.013 | doramapimod -0.034 | bafetinib -0.04 | [2] 0.122 | nilotinib 0.009 | [3] 0.036 | dasatinib -0.178 | [4] -0.064 | [5] -0.093 | quisinostat -0.055 | tipifarnib -0.178 | [6] -0.012 | [7] 0.003 | [8] 0

TNPO3 (UniProt Q9Y5L0)
inactive: lapatinib -0.024 | pictilisib -0.001 | crizotinib 0.01 | [1] -0.015 | duvelisib 0.025 | gandotinib -0.006 | tozasertib -0.036 | doramapimod -0.024 | bafetinib -0.028 | [2] 0.026 | nilotinib -0.016 | [3] 0.017 | dasatinib 0 | [4] 0.003 | [5] 0.009 | quisinostat -0.001 | tipifarnib 0.001 | [6] -0.002 | [7] -0.016 | [8] -0.01

TOLLIP (UniProt Q9H0E2)
inactive: lapatinib -0.018 | pictilisib 0.003 | crizotinib -0.059 | [1] -0.024 | duvelisib 0.003 | gandotinib 0.08 | tozasertib 0.037 | doramapimod 0.193 | bafetinib -0.04 | [2] 0.007 | nilotinib -0.029 | [3] 0.004 | dasatinib -0.016 | [4] -0.052 | [5] -0.026 | quisinostat -0.021 | tipifarnib -0.044 | [6] 0.01 | [7] 0.011 | [8] -0.011

TNIK (UniProt C9J338)
active: [1] -0.443
inactive: lapatinib -0.042 | pictilisib -0.023 | crizotinib -0.075 | duvelisib 0.115 | gandotinib 0.344 | tozasertib 0.012 | doramapimod 0.005 | bafetinib -0.258 | [2] 0.344 | dasatinib -0.055 | [5] -0.043 | quisinostat -0.292 | [6] -0.043 | [7] 0.015 | [8] -0.068

TMEM222 (UniProt Q9H0R3)
inactive: lapatinib -0.114 | pictilisib -0.018 | crizotinib -0.004 | duvelisib 0.037 | tozasertib -0.153 | doramapimod 0.012 | bafetinib -0.001 | nilotinib 0.06 | [3] -0.021 | dasatinib 0.042 | [4] -0.028 | [5] 0.052 | quisinostat -0.032 | tipifarnib -0.208 | [6] 0.032 | [7] -0.09 | [8] -0.059

TMEM209 (UniProt Q96SK2)
inactive: lapatinib -0.384 | pictilisib -0.076 | crizotinib 0.076 | [1] -0.326 | duvelisib -0.248 | gandotinib 0.09 | doramapimod -0.07 | bafetinib 0.166 | [2] -0.012 | dasatinib 0.077 | [5] -0.059 | quisinostat 0.158 | [6] 0.018 | [7] -0.003 | [8] -0.147

TMEM70 (UniProt Q9BUB7)
inactive: lapatinib -0.002 | pictilisib -0.012 | crizotinib -0.082 | duvelisib 0.011 | gandotinib 0.057 | tozasertib -0.014 | doramapimod 0.092 | bafetinib -0.038 | [2] 0.138 | nilotinib -0.05 | [3] -0.046 | dasatinib -0.065 | [4] 0.023 | [5] -0.003 | quisinostat -0.206 | tipifarnib -0.007 | [6] 0.02 | [7] 0.009 | [8] -0.001
active: [1] -0.304

TOP3B (UniProt O95985)
inactive: lapatinib -0.018 | pictilisib -0.018 | crizotinib -0.004 | [1] -0.025 | duvelisib 0.005 | gandotinib -0.022 | tozasertib -0.046 | doramapimod 0.006 | bafetinib -0.016 | [2] 0.033 | nilotinib 0.027 | [3] 0.019 | dasatinib 0.002 | [4] 0.003 | [5] -0.016 | quisinostat 0.004 | tipifarnib 0.007 | [6] -0.016 | [7] -0.021 | [8] 0.021

TMSB4X (UniProt P62328)
inactive: lapatinib 0.12 | pictilisib -0.553 | crizotinib 0.015 | [1] -0.132 | gandotinib 0.65 | tozasertib 0.123 | doramapimod -0.24 | bafetinib -0.546 | [2] -0.166 | nilotinib -0.105 | [3] -0.107 | [4] 0.115 | quisinostat -0.024 | tipifarnib -0.071 | [6] 0.263 | [7] -0.027 | [8] 0

TMEM192 (UniProt Q8IY95)
inactive: lapatinib 0.002 | pictilisib -0.016 | crizotinib -0.024 | [1] -0.014 | duvelisib 0.023 | gandotinib 0.017 | tozasertib 0.053 | doramapimod -0.016 | bafetinib 0.019 | [2] 0.038 | nilotinib 0.007 | [3] 0.001 | dasatinib -0.013 | [4] -0.004 | [5] 0.023 | quisinostat -0.065 | tipifarnib 0.01 | [6] 0.01 | [7] -0.044 | [8] 0.022

Two entries picked at random from the list so far, as already listed:
TMEM70 (UniProt Q9BUB7)
inactive: lapatinib -0.002 | pictilisib -0.012 | crizotinib -0.082 | duvelisib 0.011 | gandotinib 0.057 | tozasertib -0.014 | doramapimod 0.092 | bafetinib -0.038 | [2] 0.138 | nilotinib -0.05 | [3] -0.046 | dasatinib -0.065 | [4] 0.023 | [5] -0.003 | quisinostat -0.206 | tipifarnib -0.007 | [6] 0.02 | [7] 0.009 | [8] -0.001
active: [1] -0.304

TMSB4X (UniProt P62328)
inactive: lapatinib 0.12 | pictilisib -0.553 | crizotinib 0.015 | [1] -0.132 | gandotinib 0.65 | tozasertib 0.123 | doramapimod -0.24 | bafetinib -0.546 | [2] -0.166 | nilotinib -0.105 | [3] -0.107 | [4] 0.115 | quisinostat -0.024 | tipifarnib -0.071 | [6] 0.263 | [7] -0.027 | [8] 0

Additional records:

TPT1 (UniProt E9PJF7)
inactive: lapatinib -0.077 | pictilisib -0.531 | crizotinib 0.086 | [1] -0.056 | gandotinib -0.234 | doramapimod -0.019 | bafetinib -0.158 | [2] -0.584 | quisinostat 0.087 | [6] -0.065 | [7] -0.142 | [8] -0.283
